Earlier results, collected in PMC10886162, “Synthesis of Novel Artemisinin, Ciprofloxacin, and Norfloxacin Hybrids with Potent Antiplasmodial Activity” (Antibiotics, 2024).

Test system: CQ-resistant P. falciparum strain FcB1
Conditions: earlier work of the group; cited from earlier work

| SMILES | times more potent than FSM |
| --- | --- |
| CCOP(=O)(CCCN(O)C(=O)CCC(=O)N(CCCCNC(=O)CCC1OC2OC3(C)CCC4C(C)CCC(C1C)C24OO3)CCCNC(=O)CCC1OC2OC3(C)CCC4C(C)CCC(C1C)C24OO3)OCC (centres unmarked) [conjugate 8] | 41.5 |
| CCOP(=O)(CCCN(O)C(=O)CCC(=O)N(CCCCNC(=O)CCC1OC2OC3(C)CCC4C(C)CCC(C1C)C24OO3)CCCCNC(=O)CCC1OC2OC3(C)CCC4C(C)CCC(C1C)C24OO3)OCC (centres unmarked) [conjugate 9] | 23.1 |
